The source of these data is publication PMC7335187, “Super-assembly of ER-phagy receptor Atg40 induces local ER remodeling at contacts with forming autophagosomal membranes” (Nature Communications, 2020).

One experiment has as its target Atg40-HA (S. cerevisiae) (UniProt Q99325). Kind of experiment: co-IP; first step: lysates of cells coexpressing Atg40-FLAG, Atg40-GFP and Atg40-HA (ATG40 promoter), rapamycin 6 h, 0.5% Triton X-100; anti-FLAG antibody-conjugated beads; wild-type, atg1Δ, atg2Δ and atg8Δ cells.
Experiment [1] deals with T1, Atg8-GFP (S. cerevisiae) (UniProt P38182).
T1 sequence: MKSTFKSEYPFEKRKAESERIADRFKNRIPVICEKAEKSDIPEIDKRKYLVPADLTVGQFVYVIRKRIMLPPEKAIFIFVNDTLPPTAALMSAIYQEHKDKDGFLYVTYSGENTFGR
The experiment in a line: co-IP; lysates of ATG8-GFP atg4Δ atg40Δ cells expressing Atg40-HA, rapamycin 6 h; Atg8-GFP precipitated with GFP nanobody-conjugated magnetic beads, 2 h at 4 °C; IP buffer 50 mM Tris-HCl pH 8.0, 150 mM NaCl, 1 mM EDTA, 10% glycerol, 0.5% Triton X-100; blots for GFP and HA.

Experiment [2] addresses Atg40 AIM mutant (Y242A M245A), tagged with FLAG, GFP or HA (S. cerevisiae) (UniProt Q99325). Kind of experiment: co-IP; first step: lysates of cells coexpressing Atg40-FLAG, Atg40-GFP and Atg40-HA (ATG40 promoter), rapamycin 6 h, 0.5% Triton X-100; anti-FLAG antibody-conjugated beads; wild-type, atg1Δ, atg2Δ and atg8Δ cells.
Experiment [3] shares this target. The experiment in a line: co-IP; two-step: anti-FLAG beads, elution with 3 x FLAG peptide, then GFP nanobody-conjugated beads, blot for Atg40-HA; wild-type cells; larger oligomers significantly decreased in atg1Δ, atg2Δ and atg8Δ cells.
For experiment [4], the target named is T1, Atg8-GFP (S. cerevisiae). The experiment in a line: co-IP; Supplementary Fig. 2a (a blot; legend not shown); the methods tell only of immunoprecipitation of Atg8-GFP from yeast lysates.

Results are given in words; binding and its absence hold for the method and conditions named. Binding seen in cells or lysates may run through a third protein. Some entries that bind do so weakly or less than the wild type. Where a sequence is shown, tags or fusion partners need not be part of it.

B1: Atg40-HA (protein, UniProt Q99325 1-256)
chain: MFNLILWPLFLLTSVAIPLQLTLEVVYLTSSVDFSKASAAKTATSLGQSPVVITIYKSLLKYWSLYEFIHFIYLYTPIDAFLNFLPFTSLLMSFGSICLTRELVYDFIAFMESQNKLTGFLNKITEPNFNSYLLFSSIYNIWFADDTNDKFLFGKLTQILISVTKRYEFPRTFYLAKVSDFLQNLILTRLRPFVTEQPQGDKNRYQNGDRESTKNGAAYQKSSQQSSSFEQNFTSTEFPNDYDFMEDILDETTELD
For B1, the binding entry with Atg40-HA (S. cerevisiae) and with Atg8-GFP (S. cerevisiae) [1] was “binds” throughout.

B2: Atg40 AIM mutant (Y242A M245A), tagged with FLAG, GFP or HA (protein, UniProt Q99325 1-256)
chain: MFNLILWPLFLLTSVAIPLQLTLEVVYLTSSVDFSKASAAKTATSLGQSPVVITIYKSLLKYWSLYEFIHFIYLYTPIDAFLNFLPFTSLLMSFGSICLTRELVYDFIAFMESQNKLTGFLNKITEPNFNSYLLFSSIYNIWFADDTNDKFLFGKLTQILISVTKRYEFPRTFYLAKVSDFLQNLILTRLRPFVTEQPQGDKNRYQNGDRESTKNGAAYQKSSQQSSSFEQNFTSTEFPNDADFAEDILDETTELD
B2: the binding entry in experiment [2] and in experiment [3] was “binds” each time.

B3: Atg40 (as compared in Supplementary Fig. 2a) (protein, UniProt Q99325 1-256)
chain: MFNLILWPLFLLTSVAIPLQLTLEVVYLTSSVDFSKASAAKTATSLGQSPVVITIYKSLLKYWSLYEFIHFIYLYTPIDAFLNFLPFTSLLMSFGSICLTRELVYDFIAFMESQNKLTGFLNKITEPNFNSYLLFSSIYNIWFADDTNDKFLFGKLTQILISVTKRYEFPRTFYLAKVSDFLQNLILTRLRPFVTEQPQGDKNRYQNGDRESTKNGAAYQKSSQQSSSFEQNFTSTEFPNDYDFMEDILDETTELD
B3: the binding entry with Atg8-GFP (S. cerevisiae) [4] is “binds”.

B4: TMD-40C (protein, UniProt P33754 24-58; Q99325 194-256)
chain: ETKSISVYTPLIYVFILVVSLVMFASSYRKKQAKKVTEQPQGDKNRYQNGDRESTKNGAAYQKSSQQSSSFEQNFTSTEFPNDYDFMEDILDETTELD
As to B4, the binding entry with Atg8-GFP (S. cerevisiae) [4] is “binds”.
